Assay results: PubChem BioAssay AID594 (National Center for Advancing Translational Sciences (NCATS), 2007)
In all, about 59,000 compounds went through this assay and about 30 (0.05%) were called active. The inconclusive results got no clear call from the source; some entries with a clear call stand among them for comparison. Rule as the data show it: active = max dye-equivalent concentration above about 11 nM; inconclusive = between about 1.1 nM and that limit; inactive = weaker than that.

Assay: qHTS Assay for Spectroscopic Profiling in Rhodamine Spectral Region
Details: Rhodamine-region fluorescence, 547/598 nm, Tris buffer; active compounds read high
Method in brief: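 Intensities are converted to rhodamine-equivalent concentration using a six-point rhodamine standard on each plate. Compounds sit 15 min at room temperature in 100 mM Tris buffer, pH 8.0; read uses the 547/598 nm excitation/emission pair.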

| Compound | max dye-equivalent concentration |
| --- | --- |
| Cc1cc2cc(CNC(=O)c3ccc4c(c3)OCO4)ccc2n1C | inconclusive: 1.5 nM |
| C[C@H]1CN(S(=O)(=O)c2cccc3cnccc23)CCN1 | inactive |
| Cc1cc(=O)[nH]c(SCCOc2ccc(OC(C)C)cc2)n1 | inconclusive: 1.5 nM |
| Cc1nnc2sc(-c3ccc(NC(=O)c4ccc(-c5ccc(Cl)cc5Cl)o4)cc3)nn12 | inconclusive: 2.3 nM |
| CN(C)c1ccc(-c2nc(NCc3cccnc3)c3ccccc3n2)cc1 | inactive |
| CCOC(=O)N1CCN(Cc2nc3c(c(=O)n(C)c(=O)n3C)n2CCCc2ccccc2)CC1 | inconclusive: 2.4 nM |
| C=C/C(C)=C/[C@]1(C)SC(=O)C(C)=C1O | inactive |
| CCOc1ccc(C2C=C(c3ccccc3)Nc3ncnn32)cc1 (centres undefined) | inactive |
| N#CC1=C(N)Oc2n[nH]c(-c3cccs3)c2C1c1ccco1 (centres undefined) | inconclusive: 5.2 nM |
| Cn1c(=O)c2[nH]cnc2n(C)c1=O | inconclusive: 2.7 nM |
| C/C(=C\CNc1ncnc2c1ncn2[C@@H]1O[C@@H](CO)[C@@H](O)[C@H]1O)CO | inactive |
| CN1CCN([C@@H]2Cc3ccccc3Sc3ccc(Cl)cc32)CC1 | inactive |
| Nc1cc2c(nc3c4ccccc4c(N)cc3[n+]2-c2cccc3ccccc23)c2ccccc12 (tested in a mixture with another compound) | inconclusive: 3.2 nM |
| Cc1ccc2c(c1)c(C)c(C)n2CC(O)CN1CCOCC1 (centres undefined) | active: 12 nM |
| CC(=O)[C@@H]1[C@@H]2C(=O)N(c3ccc(F)c(Cl)c3)C(=O)[C@@H]2C2c3ccccc3C=CN21 (some centres undefined) | inconclusive: 3 nM |
| N=c1oc2c3c4c(cc2cc1C(=O)Nc1ccccc1)CCCN4CCC3 | inconclusive: 1.1 nM |
| CCN(CC)c1ccc(C=N/C(C#N)=C(\N)C#N)cc1 | inconclusive: 1.7 nM |
| CCCCC(CC)Cn1c2nc3ccccc3nc2c2c(=N)oc(C)nc21 (centres undefined) | inconclusive: 3.3 nM |
| COc1cccc2c1C(=O)c1c(O)c3c(c(O)c1C2=O)C[C@](O)(C(=O)CO)C[C@H]3O[C@@H]1C[C@H](N)[C@H](O)[C@H](C)O1 | active: 98 nM |
| Nc1ccc2c3c(cccc13)C(=O)NC2=O | inconclusive: 1.3 nM |
| N#C[C@@H]1[C@@H]2C(=O)N(c3ccc4c(c3)OCCO4)C(=O)[C@@H]2C2c3ccccc3C=CN21 (some centres undefined) | inconclusive: 7.1 nM |
| COc1cccc2c1C(=N)c1c(O)c3c(c(O)c1C2=O)C[C@](O)(C(C)=O)C[C@@H]3O[C@H]1C[C@H](N)[C@@H](O)[C@H](C)O1 | inconclusive: 1.4 nM |
| COc1c2ccoc2cc2oc(=O)ccc12 | inactive |
| CCCCOc1ccc(-c2c(C#N)c(N)nc(SCC(N)=O)c2C#N)cc1 | inconclusive: 1.1 nM |

A stretch from further up, for reference:

| Compound | max dye-equivalent concentration |
| --- | --- |
| Cc1ccc2c(c1)c(C)c(C)n2CC(O)CN1CCOCC1 (centres undefined) | active: 12 nM |
| CC(=O)[C@@H]1[C@@H]2C(=O)N(c3ccc(F)c(Cl)c3)C(=O)[C@@H]2C2c3ccccc3C=CN21 (some centres undefined) | inconclusive: 3 nM |

(further entries)

| Compound | max dye-equivalent concentration |
| --- | --- |
| Nc1ccc(C(=O)O)c(O)c1 | inactive |
| CC[N+](C)(CC)CCC[n+]1c(-c2ccccc2)c2cc(N)ccc2c2ccc(N)cc21 | inconclusive: 2.7 nM |
| Nc1n[nH]c2ccccc12 | active: 15 nM |
| Cc1cc2cc(CNC(=O)c3cc4ccccc4o3)ccc2n1C | inconclusive: 2.5 nM |
| COc1cccc2c1C(=O)c1c(O)c3c(c(O)c1C2=O)C[C@@](O)(C(=O)CO)C[C@H]3O[C@H]1C[C@@H](N)[C@H](O)[C@@H](C)O1.[W] | inconclusive: 1.8 nM |
| Cc1ccc(-c2nnn(CC(=O)Nc3ccccc3-c3ccccc3)n2)c(-n2cnnn2)c1 | inconclusive: 1.7 nM |
| CC(=O)S[C@H]1CC2=CC(=O)CC[C@@]2(C)[C@H]2CC[C@@]3(C)[C@H](CC[C@]34CCC(=O)O4)[C@@H]12 | inconclusive: 9.5 nM |
| CC1(C)c2ccccc2N2CC(=O)N(CC(N)=O)C21C (centres undefined) | inconclusive: 2.7 nM |
| CCn1c(CSc2nccn2C)nc2cc(C(=O)O)ccc21 | active: 17 nM |
| O=c1[nH]c2[nH]c(=S)[nH]c(=S)c2[nH]1 | inactive |
| CC1=CC(C#N)(C#N)C(C#N)(C#N)C(c2ccccc2)N1 (centres undefined) | active: 28 nM |
| CC1N(C)c2cc(NC(=O)c3ccco3)ccc2C1(C)C (centres undefined) | inconclusive: 1.8 nM |
| CCn1cc(C(=O)NCc2ccccn2)c(=O)c2cc(S(=O)(=O)N3CCCCC3)ccc21 | inconclusive: 6.6 nM |
| O=C1c2ccccc2-c2onc3ccc(NCCCn4ccnc4)c1c23 | active: 620 nM |
| Cn1c(=S)c2[nH]c(SCCCc3ccccc3)nc2n(C)c1=O | inactive |
| O=C(CSc1nc2ccccc2s1)c1sc2sc3ccccc3[n+]2c1O | inconclusive: 4.9 nM |
| CCOC(=O)CN=C1CC(C)(C)CC2=C1Sc1ncnc(N(C)C)c1N2 | inconclusive: 2.1 nM |
| N=C1[C@@H](O)[C@]2(I)c3ccccc3N3C(=N)[C@H](O)[C@@H]4c5ccccc5N1[C@@H]4[C@@H]32 | inconclusive: 4.2 nM |
| Cc1cc(=O)oc2c(CN3CCC(C)CC3)c(O)c(Cl)cc12 | inconclusive: 1.1 nM |
| CC(C)C[C@H](N)C(=O)O | inactive |
| CC1Cc2ccccc2N1S(=O)(=O)c1cccs1 (centres undefined) | inconclusive: 4.1 nM |
| O=C1OC2(c3ccc(O)cc3Oc3cc(O)ccc32)c2c1c(-c1ccccc1)c(-c1ccccc1)c(-c1ccccc1)c2-c1ccccc1 | inconclusive: 3.3 nM |
| CCCCn1c2nc3ccccc3nc2c2c(=N)oc(C)nc21 | inconclusive: 3 nM |
| Cc1cnc(CNc2nc(-c3cccc(NS(C)(=O)=O)c3)nc3ccccc23)cn1 | inactive |
